# Laboratory results as given in article PMC9936545, “Diurnal Fluctuations of Orexin-A and -B in Cynomolgus Monkey Cerebrospinal Fluid Determined by a Novel Analytical Method Using Antiadsorptive Additive Treatment Followed by Nanoflow Liquid Chromatography–High-Resolution Mass Spectrometry” (ACS Chemical Neuroscience, 2023).
# Experiment: Diurnal fluctuations of OXA and OXB levels in cisternal and lumbar CSF by nanoLC-HRMS
# Type: in vivo, cynomolgus monkey
# [1] = LLOQ 2.5 pg/mL, given a value of 0 pg/mL
# [2] = percentage relative to maximum concentration in each animal, mean, N = 5
substance,measurement,setting,value
"Orexin-A (QPLPDCCRQKTCSCRLYELLHGAGNHAAGILTL; Orexin-A; UniProt O43612 34-66, looked up) [OXA, 33-amino acid peptide with N-terminal pyroglutamylation, amidation of the C-terminal leucine, and two intramolecular disulfide bridges]","concentration in cisternal CSF, animal-1 at 3:00",[1],below the LLOQ
same,"concentration in lumbar CSF, animal-1 at 8:00",[1],below the LLOQ
same,mean molar ratio of OXA to OXB,"cisternal CSF, mean ± SD",5.3 ± 3.9
same,concentration in the CSF sample used in PRM analysis,"monkey cisternal CSF sample at 17:00, nanoLC-HRMS",179.5 pg/mL
same,"bottom level at 7:00, % of the maximum, cisternal CSF",[2],33.5%
same,"bottom level at 7:00, % of the maximum, lumbar CSF",[2],17.6%
